Data taken from the supplement of paper PMC10689618.
This is one part of the list. Single values are uncertain, as repeats are few or missing.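 Primary human fetal astrocytes engulfed labelled rat cortical synaptosomes, measured as a red/green ratio corrected for calcein live-cell signal and scaled to the plate median. Toxicity meant calcein falling over 30%; decreased phagocytosis meant below 70% of median above 5 µM.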

Legend:
Human fetal astrocytes [1] = test: loss of total cells relative to no-compound high-control median (toxicity); higher = more toxic (fewer cells); details: 24 h
Human fetal astrocytes [2] = test: synaptosome phagocytosis (pHrodo/calcein intensity ratio) relative to plate median of data wells; higher = more phagocytosis; details: 24 h

| Compound | loss of total cells (Human fetal astrocytes [1]; 1.39 µM) [%] | loss of total cells (Human fetal astrocytes [1]; 2.78 µM) [%] | loss of total cells (Human fetal astrocytes [1]; 5.56 µM) [%] | loss of total cells (Human fetal astrocytes [1]; 11.11 µM) [%] | loss of total cells (Human fetal astrocytes [1]; 22.22 µM) [%] | synaptosome phagocytosis (Human fetal astrocytes [2]; 1.39 µM) [%] | synaptosome phagocytosis (Human fetal astrocytes [2]; 2.78 µM) [%] | synaptosome phagocytosis (Human fetal astrocytes [2]; 5.56 µM) [%] | synaptosome phagocytosis (Human fetal astrocytes [2]; 11.11 µM) [%] | synaptosome phagocytosis (Human fetal astrocytes [2]; 22.22 µM) [%] |
| --- | --- | --- | --- | --- | --- | --- | --- | --- | --- | --- |
| CCCC(C)(COC(N)=O)COC(=O)NC(C)C (stereo not given) [Carisoprodol] | -21.6 | -12.5 | 2.1 | -36.7 | -14.7 | 136 | 74.2 | 119 | 112 | 97.7 |
| COC(=O)[C@@H]1C[C@H](OC(C)=O)C(=O)[C@H]2[C@@]1(C)CC[C@H]1C(=O)O[C@H](c3ccoc3)C[C@]21C | 2.5 | 6.1 | -13.9 | 11.5 | -0.7 | 93.8 | 127 | 101 | 88.6 | 87.9 |
| CNC(C)C(O)c1ccccc1 (stereo not given) | -7.4 | -10.5 | -18.8 | 4.9 | -13.7 | 106 | 103 | 88.8 | 109 | 83.9 |
| COc1ccc(/C=C/c2cc(O)cc(O)c2)cc1 | -13.9 | 8.3 | -1.5 | 23 | 11.9 | 116 | 93.4 | 117 | 101 | 101 |
| S=C=NCc1ccccc1 | 20.6 | 17.7 | -47.1 | 13.8 | -16.7 | 127 | 151 | 0 | 125 | 136 |
| CC(Oc1ccc(Cl)cc1Cl)C(=O)O (stereo not given) | 21.3 | 1.1 | 10.9 | 2.1 | 0 | 73.7 | 70.1 | 83.2 | 105 | 42.9 |
| COc1cc(OC)c2c(c1)O[C@H](c1ccc(OC)c(OC)c1)[C@@H](O)C2 [2-(3,4-dimethoxyphenyl)-5,7-dimethoxy-3-chromanol] | -18.5 | 5.3 | -16 | -6.5 | -15.2 | 80.4 | 112 | 71.7 | 91.1 | 124 |
| Oc1cccc2cccnc12 [Benzoic acid, 2-hydroxy-, compd. with 8-quinolinol (1:1)] | -11 | -16.6 | 23.7 | 40.6 | 44.7 | 130 | 122 | 63.3 | 36.1 | 35 |
| O=C1NC(=O)C(=O)C(=O)N1 | -6.1 | 5.4 | -4.3 | 9.6 | 9.1 | 101 | 68.6 | 97.3 | 107 | 75.5 |
| CC(=O)O[C@H]1[C@H]2[C@@H](OC(=O)Cc3ccccc3)[C@@H](C)C[C@]2(OC(C)=O)C(=O)/C(C)=C/[C@@H]2[C@H](CC[C@@]13CO3)C2(C)C | -26.2 | -19.9 | -2.9 | 18.9 | 3 | 97.7 | 112 | 116 | 155 | 83.9 |
| C#C[C@]1(O)CC[C@H]2[C@@H]3CCC4=CC(=O)CC[C@]4(C)[C@H]3CC[C@@]21C | -26.6 | 36.5 | -1.2 | 44.3 | -9 | 71.7 | 135 | 97.5 | 147 | 118 |
| Oc1ccc(Cl)cc1 | -32.4 | -11.9 | 3.3 | 18 | 21 | 131 | 91.5 | 124 | 105 | 127 |
| COc1ccc2c(c1)[nH]c1c(C)nccc12 | 16.2 | 14.8 | 8 | 7.9 | 20.5 | 109 | 137 | 111 | 72.3 | 94.3 |
| NC(=O)c1ccc(N)nc1 | -27.9 | -6.9 | 0.7 | 13.5 | -2.2 | 88.2 | 111 | 94 | 83.1 | 79 |
| COc1ccc(CCN2CCC(Nc3nc4ccccc4n3Cc3ccc(F)cc3)CC2)cc1 | -14.9 | 12 | -0.8 | 54.2 | 81.9 | 86.3 | 85.9 | 54.2 | 19.8 | 0 |
| CC[C@@H](C(=O)[C@@H](C)[C@@H](O)[C@H](C)[C@@H]1O[C@@H]([C@@H](CC)C(=O)O)CC[C@@H]1C)[C@H]1O[C@]2(C=C[C@@H](O)[C@]3(CC[C@@](C)([C@H]4CC[C@](O)(CC)[C@H](C)O4)O3)O2)[C@H](C)C[C@@H]1C | 13.4 | 11.2 | 12.3 | 18.8 | 13.6 | 112 | 54.7 | 52 | 59.8 | 9.3 |
| C[C@@H]1O[C@@H](O[C@H]2C[C@@H](O)[C@]3(CO)[C@H]4[C@H](O)C[C@]5(C)[C@@H](C6=CC(=O)OC6)CC[C@]5(O)[C@@H]4CC[C@]3(O)C2)[C@H](O)[C@H](O)[C@H]1O | 38.9 | 20 | 9.8 | 45.8 | 31.3 | 92.1 | 52.9 | 39.9 | 25.8 | 32 |
| CC(C)(C)NCC(O)c1cc(Cl)c(N)c(Cl)c1 (stereo not given) | 11.2 | 5.4 | 11.6 | 7.9 | 18.2 | 110 | 96.6 | 107 | 85.7 | 79.5 |
| CN(C)[C@@H]1C(=O)C(C(N)=O)=C(O)[C@@]2(O)C(=O)C3=C(O)c4c(O)cccc4[C@@](C)(O)[C@H]3[C@H](O)[C@@H]12 | -0.8 | -0.3 | -5.7 | -15.6 | 3.4 | 83.4 | 92 | 98.6 | 106 | 108 |

| Compound | loss of total cells (Human fetal astrocytes [1]; 1.39 µM) [%] | loss of total cells (Human fetal astrocytes [1]; 2.78 µM) [%] | loss of total cells (Human fetal astrocytes [1]; 5.56 µM) [%] | loss of total cells (Human fetal astrocytes [1]; 11.11 µM) [%] | loss of total cells (Human fetal astrocytes [1]; 22.22 µM) [%] | synaptosome phagocytosis (Human fetal astrocytes [2]; 1.39 µM) [%] | synaptosome phagocytosis (Human fetal astrocytes [2]; 2.78 µM) [%] | synaptosome phagocytosis (Human fetal astrocytes [2]; 5.56 µM) [%] | synaptosome phagocytosis (Human fetal astrocytes [2]; 11.11 µM) [%] | synaptosome phagocytosis (Human fetal astrocytes [2]; 22.22 µM) [%] |
| --- | --- | --- | --- | --- | --- | --- | --- | --- | --- | --- |
| COP(=S)(OC)Oc1ccc(Sc2ccc(OP(=S)(OC)OC)cc2)cc1 | -23.2 | -0.9 | 3.3 | -25 | 24.9 | 114 | 91.3 | 73.4 | 121 | 76.3 |
| Nc1ccc([As](=O)(O)O)cc1 | -54 | -27 | -10.6 | 23.3 | 5.9 | 92.2 | 74.6 | 99.6 | 109 | 89 |
| C[C@]12CC[C@H]3[C@@H](CCC4=CC(=O)CC[C@@]43C)[C@@H]1CC[C@@H]2O | -14.9 | -2.1 | -5.7 | 12.5 | -4 | 100 | 116 | 109 | 92.5 | 102 |
| C[C@H](N)[C@H](O)c1ccccc1 | -9.8 | 4.7 | 32.1 | 5.8 | 12.2 | 103 | 128 | 131 | 114 | 118 |
| O=[N+]([O-])O[C@H]1CO[C@H]2[C@@H]1OC[C@H]2O[N+](=O)[O-] | 25.2 | 10.5 | 3.5 | 0.3 | 2.7 | 37.4 | 39.3 | 42.7 | 32.9 | 36 |
| Cc1[nH]c2ccccc2c1CN(C)C | 35.9 | 29.2 | -17.6 | 33.5 | 32.2 | 160 | 142 | 57.8 | 92 | 160 |
| NC(=O)c1cc([N+](=O)[O-])cc([N+](=O)[O-])c1 | 7.4 | -13.2 | -7 | 3.7 | -24.6 | 90.8 | 56.2 | 121 | 109 | 86 |
| O=C(O)CCC1NCC2CC1CN1CCCCC21 (stereo not given) | -12.3 | -11.9 | 0.7 | 26.4 | 16.3 | 126 | 125 | 116 | 158 | 144 |
| C=CC[C@]1(O)CC[C@H]2[C@@H]3CCC4=CC(=O)CCC4=C3C=C[C@@]21C | -37.9 | 33.3 | -5 | 37.7 | 13.4 | 76.7 | 119 | 76.6 | 111 | 109 |
| CC(C)=CC1C(C(=O)OCc2cccc(Oc3ccccc3)c2)C1(C)C (stereo not given) | 8.3 | -1.8 | 8 | -7.9 | 18.2 | 94.1 | 96.8 | 56.3 | 77.3 | 97.7 |
| C[C@@H]1CC[C@H]2[C@@H](C)C(=O)O[C@@H]3O[C@@]4(C)CC[C@@H]1[C@]32OO4 [Artemisinine] | 19.9 | 15.5 | 13 | -3.8 | 28 | 156 | 126 | 98.2 | 86.8 | 129 |
| COc1cc([C@@H]2c3cc4c(cc3[C@H](OC(C)=O)[C@H]3COC(=O)[C@H]23)OCO4)cc(OC)c1OC | -7.4 | 27.8 | 15.4 | 18.9 | 23 | 94 | 83.1 | 76.3 | 40.8 | 79.4 |
| N#C/C(=C\c1cccc(O)c1)C(=O)O [alpha-CYANO-3-HYDROXYCINNAMIC ACID] | 18.4 | 6.1 | -3.6 | -16.3 | 17.4 | 96.6 | 101 | 122 | 136 | 115 |
| COc1cc2c(cc1O)C[C@H]1c3c(cc(O)c(OC)c3-2)CCN1C | -22.1 | -5.4 | 8.1 | 10.1 | 5.2 | 110 | 69.9 | 102 | 91.2 | 77.5 |
| O=C1CCO1 | -26.6 | 21.4 | 7.5 | 49.5 | 7.2 | 56.2 | 99.8 | 78.6 | 113 | 107 |
| O=C1C[C@@H]2OCC=C3CN4CC[C@]56c7ccccc7N1[C@H]5[C@H]2[C@H]3C[C@H]46 | 11 | -18 | -9.1 | 12.4 | -1.5 | 85.6 | 87.9 | 85.1 | 104 | 103 |
| N#C[C@H](O[C@@H]1O[C@H](CO[C@@H]2O[C@H](CO)[C@@H](O)[C@H](O)[C@H]2O)[C@@H](O)[C@H](O)[C@H]1O)c1ccccc1 | -15.6 | 6.9 | 4.4 | 19.6 | 5.9 | 137 | 122 | 123 | 123 | 132 |
| CN1C2CC(=O)CC1C(O)C2 (stereo not given) | 22.7 | 14.1 | 22.5 | 1.3 | 30.3 | 141 | 103 | 128 | 112 | 118 |
| CNC(=O)Oc1ccc2c(c1)[C@]1(C)CCN(C)[C@@H]1N2C [(-)-Physostigmine] | -13.9 | -10.5 | -18.1 | -4.9 | 39.2 | 80.9 | 86.2 | 119 | 101 | 89.1 |

Reprinted at random: 2 records from the list.

| Compound | loss of total cells (Human fetal astrocytes [1]; 1.39 µM) [%] | loss of total cells (Human fetal astrocytes [1]; 2.78 µM) [%] | loss of total cells (Human fetal astrocytes [1]; 5.56 µM) [%] | loss of total cells (Human fetal astrocytes [1]; 11.11 µM) [%] | loss of total cells (Human fetal astrocytes [1]; 22.22 µM) [%] | synaptosome phagocytosis (Human fetal astrocytes [2]; 1.39 µM) [%] | synaptosome phagocytosis (Human fetal astrocytes [2]; 2.78 µM) [%] | synaptosome phagocytosis (Human fetal astrocytes [2]; 5.56 µM) [%] | synaptosome phagocytosis (Human fetal astrocytes [2]; 11.11 µM) [%] | synaptosome phagocytosis (Human fetal astrocytes [2]; 22.22 µM) [%] |
| --- | --- | --- | --- | --- | --- | --- | --- | --- | --- | --- |
| COP(=S)(OC)Oc1ccc(Sc2ccc(OP(=S)(OC)OC)cc2)cc1 | -23.2 | -0.9 | 3.3 | -25 | 24.9 | 114 | 91.3 | 73.4 | 121 | 76.3 |
| COc1cc([C@@H]2c3cc4c(cc3[C@H](OC(C)=O)[C@H]3COC(=O)[C@H]23)OCO4)cc(OC)c1OC | -7.4 | 27.8 | 15.4 | 18.9 | 23 | 94 | 83.1 | 76.3 | 40.8 | 79.4 |
